Reference: US20230119290A1 (UNIVERSIT T ZU K LN, published 2023)
Results are given in words; binding and its absence hold for the method and conditions named. Some binding calls cover weakened binding; strength is not graded here.

By UniProt entry, the sequences of proteins in these tests, tags left out. Where a name states a change or a piece, a line headed by the entry shows the natural chain unless it says otherwise.
UniProt P17948: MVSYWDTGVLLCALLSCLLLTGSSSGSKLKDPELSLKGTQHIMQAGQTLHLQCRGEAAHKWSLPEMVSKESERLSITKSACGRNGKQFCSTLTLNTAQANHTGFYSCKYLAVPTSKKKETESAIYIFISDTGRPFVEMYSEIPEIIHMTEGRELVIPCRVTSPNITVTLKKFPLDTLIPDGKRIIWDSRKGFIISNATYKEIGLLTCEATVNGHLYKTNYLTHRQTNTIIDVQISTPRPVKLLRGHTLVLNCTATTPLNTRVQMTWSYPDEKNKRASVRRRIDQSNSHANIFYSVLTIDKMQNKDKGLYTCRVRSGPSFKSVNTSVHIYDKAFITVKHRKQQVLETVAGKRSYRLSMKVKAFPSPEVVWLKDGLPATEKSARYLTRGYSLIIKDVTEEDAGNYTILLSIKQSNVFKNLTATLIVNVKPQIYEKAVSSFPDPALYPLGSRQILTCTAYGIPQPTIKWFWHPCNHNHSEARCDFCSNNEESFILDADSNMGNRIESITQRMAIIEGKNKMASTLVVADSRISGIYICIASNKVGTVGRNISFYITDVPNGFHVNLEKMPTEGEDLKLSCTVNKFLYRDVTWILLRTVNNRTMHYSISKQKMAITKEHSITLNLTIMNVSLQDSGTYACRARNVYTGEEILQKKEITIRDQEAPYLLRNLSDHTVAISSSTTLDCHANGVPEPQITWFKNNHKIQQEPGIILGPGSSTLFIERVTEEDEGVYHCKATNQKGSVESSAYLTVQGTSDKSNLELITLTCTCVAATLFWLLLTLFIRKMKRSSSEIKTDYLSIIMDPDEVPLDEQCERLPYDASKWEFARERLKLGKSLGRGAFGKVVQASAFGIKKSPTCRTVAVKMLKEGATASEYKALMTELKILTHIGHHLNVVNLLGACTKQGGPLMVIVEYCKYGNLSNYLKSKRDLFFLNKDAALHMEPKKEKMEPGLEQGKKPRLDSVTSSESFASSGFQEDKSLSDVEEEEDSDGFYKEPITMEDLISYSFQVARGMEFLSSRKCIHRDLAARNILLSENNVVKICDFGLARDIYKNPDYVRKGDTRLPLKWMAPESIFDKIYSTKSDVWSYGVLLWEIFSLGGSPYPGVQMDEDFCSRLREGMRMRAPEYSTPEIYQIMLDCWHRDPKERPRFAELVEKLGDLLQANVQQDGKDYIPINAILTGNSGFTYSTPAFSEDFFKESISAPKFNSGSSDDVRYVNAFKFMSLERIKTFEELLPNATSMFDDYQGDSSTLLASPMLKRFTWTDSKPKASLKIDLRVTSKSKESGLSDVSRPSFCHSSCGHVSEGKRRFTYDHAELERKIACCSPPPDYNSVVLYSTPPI

How the values were obtained:
[1] = biological target: VEGF-Trap (chimeric protein of VEGFR-1 domain 2 and VEGFR-2 domain 3 fused to Fc) (UniProt P17948); assay: solid phase ELISA, VEGF/PIGF variant immobilised, VEGF-trap titrated
[2] = biological target: VEGF-Trap (chimeric protein of VEGFR-1 domain 2 and VEGFR-2 domain 3 fused to Fc) (UniProt P17948); assay: solid phase ELISA with VEGF-trap

Row | Binder | binding [1] | binding [2]
1 | single chain PIGF dimer (scPIGF) (ligand, not shown: small tags and cut ends) TASLPAVPPQQWALSAGNGSSEVEVVPFQEVWGRSYCRALERLVDVVSEYPSEVEHMFSPSCVSLLRCTGCCGDENLHCVPVETANVTMQLLKIRSGDRPSYVELTFSQHVRCECRPLREKMKPERCGDAVPRRGSTSGSGKSSEGKGLPAVPPQQWALSAGNGSSEVEVVPFQEVWGRSYCRALERLVDVVSEYPSEVEHMFSPSCVSLLRCTGCCGDENLHCVPVETANVTMQLLKIRSGDRPSYVELTFSQHVRCECRPLREKMKPERCGDAVPRRGST | binds | binds
2 | monomeric PIGF (moPIGF) (ligand, UniProt P49763-2 19-149, looked up, not shown: small tags and cut ends) LPAVPPQQWALSAGNGSSEVEVVPFQEVWGRSYCRALERLVDVVSEYPSEVEHMFSPSCVSLLRCTGCCGDENLHCVPVETANVTMQLLKIRSGDRPSYVELTFSQHVRCECRPLREKMKPERCGDAVPRR | binds | binds
